From patent US20210239689A1, “COMPETITIVE SMALL MOLECULE DETECTION ASSAYS USING ARRAYED IMAGING REFLECTOMETRY” (ADARZA BIOSYSTEMS, INC., priority 2015, published 2021) come the findings set out here.

Where “and” joins values, the source holds several entries; their conditions need not be identical. Equal entries are not always repeated.

What all share (format): binding
In data set [1] the test system is Antibodies against benzo[a]pyrene (GTX20768). Description: AIR toxicant array, competitive immunoassay (three-plex), benzo[a]pyrene. To be noted: three-plex AIR assay, competitive inhibition, 0.5% BSA in PBS-ET, antibody 6.7 nanomolar.
The test system of data set [2] is anti-bisphenol A. The data set can be described thus: Competitive ELISA of anti bisphenol A (plate adsorbed with KLH-bisphenol A, free bisphenol A as competitor).
Data set [3] concerns Anti-bisphenol A (AS132735). Description: AIR toxicant array, competitive immunoassay (three-plex), bisphenol A. The note with it: three-plex AIR assay, competitive inhibition, 0.5% BSA in PBS-ET, antibody 6.7 nanomolar.
The subject of data set [4] is Antibodies against acrolein (GTX15138). Description: AIR toxicant array, competitive immunoassay (three-plex), acrolein.
The mark [5] stands for this setting: three-plex AIR assay, competitive inhibition, 0.5% BSA in PBS-ET, antibody 6.7 nanomolar.

On to `c1ccc2c(c1)cc1ccc3cccc4ccc2c1c34` [Benzo[a]pyrene, benzo[a]pyrene], for which, in data set [1], the LLOD was determined as 16 nM and the LLOQ came out at 16 nM.

Take `CC(C)(c1ccc(O)cc1)c1ccc(O)cc1` [Bisphenol A, bisphenol A]: the “lower limit of detection” value in data set [2] is 0.64 ng/mL and 2.8 nM. In data set [3], this compound displayed an LLOD of 80 nM and an LLOQ of 80 nM.

Regarding `C=CC=O` [Acrolein, acrolein], the “AIR array response to analyte doped in pooled normal human serum (PNHS)” value in data set [4] (competitive inhibition mode, 10 and 50 micromolar, FIG. 8) is given as “concentration-dependent responses”. Moreover, the “response in competitive inhibition format versus competitive dissociation format” value in data set [4] (equivalent concentrations, FIG. 6) is listed as “substantially greater response”. In data set [4] (setting [5]), this compound showed an LLOD of 16 nM and an LLOQ of 16 nM.
